Where “and” joins values, the source holds several entries; their conditions need not be identical. Equal values may be shown once. Inconclusive means that the source gave no clear call. Such entries were picked first, then a sample of the others. A potency beside an inconclusive call is a rough fit, not a confirmed value. More than one record can exist for a structure, and the calls need not agree. Calls of active or inactive are those of the source. How the source made its calls: active means hit-call score of the fitted dose curve at least 0.9, where 1 is the maximum; inconclusive means response in the unintended direction; inactive means score below 0.9.
test system: not listed separately; test: TOX21_p53_BLA_p4_viability: Viability Assessment in the Tox21 HCT-116 p53 Agonism Beta-lactamase Assay, Phase 4 (AID 2283597);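 further: hits lower the luminescence signal meaning cytotoxicity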
Outline: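 Readout: ATP luminescence (CellTiter-Glo), measured 30 min after reagent addition at RT. The reagent followed a 2 h CCF4-AM incubation, and the cells had been exposed to compound for 16 h at 37C.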

Sequences of proteins named here, by UniProt entry; tags and fusion partners are left off.
UniProt P04637, whole entry, looked up: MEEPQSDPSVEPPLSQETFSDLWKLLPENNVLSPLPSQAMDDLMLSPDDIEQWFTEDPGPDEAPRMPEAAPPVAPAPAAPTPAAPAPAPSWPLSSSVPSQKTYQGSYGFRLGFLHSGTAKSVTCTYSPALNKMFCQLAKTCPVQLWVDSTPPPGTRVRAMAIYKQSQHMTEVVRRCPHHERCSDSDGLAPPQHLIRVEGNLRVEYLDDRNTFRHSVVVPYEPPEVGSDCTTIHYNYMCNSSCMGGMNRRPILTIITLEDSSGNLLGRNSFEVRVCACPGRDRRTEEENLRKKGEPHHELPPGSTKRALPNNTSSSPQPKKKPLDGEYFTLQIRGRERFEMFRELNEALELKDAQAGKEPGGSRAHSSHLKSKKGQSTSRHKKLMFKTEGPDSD

Row | Compound | AC50 | outcome
1 | O=C(Nc1cccc([N+](=O)[O-])c1)c1cc2ccccc2cc1O | active: 16.6 µM | –
2 | CCCCCCc1ccc(O)cc1O | active: 69.2 µM and active: 73 µM | –
3 | COc1cccc2c1C(=O)c1c(O)c3c(c(O)c1C2=O)C[C@@](O)(C(=O)CO)C[C@@H]3O[C@H]1C[C@H](N)[C@H](O)[C@H](C)O1 | inconclusive: 8.43 µM and inconclusive: 23 µM | –
4 | CC(C)=CCl | inconclusive: 46.6 µM | –
5 | Clc1cc(Cl)c(Cl)cc1Cl | inconclusive: 46.7 µM | –
6 | O=C(Cl)c1cccc(C(=O)Cl)c1 | inconclusive: 46.1 µM | –
7 | CCN=C1C=CC(=C(c2ccc(N(CC)CC)cc2)c2ccc(N(CC)CC)cc2)c2ccccc21 | active: 45.9 µM | –
8 | C=CC(=O)OCCC(=O)O | inconclusive: 46.1 µM and inconclusive: 57.4 µM | –
9 | Clc1ccc(C(c2ccccc2Cl)C(Cl)Cl)cc1 (stereo not drawn) | active: 64.3 µM and active: 25.8 µM | –
10 | O=C(Nc1cccc(C(F)(F)F)c1)c1cc(Br)cc(Br)c1O | active: 1.82 µM and active: 1.7 µM | –
11 | CN[C@H]1CC[C@@H](c2ccc(Cl)c(Cl)c2)c2ccc(S(N)(=O)=O)cc21 | active: 61.9 µM | –
12 | CC(C)CCCCCCCOC(=O)CCCCC(=O)OCCCCCCCC(C)C | inconclusive: 46.1 µM and inconclusive: 37.7 µM | –
13 | C[Si]1(C)O[Si](C)(C)O[Si](C)(C)O[Si](C)(C)O1 | inconclusive: 46.1 µM and inconclusive: 2.84 nM | –
14 | CCCCCCC(=O)OCC | inconclusive: 46.1 µM | –
15 | OCC1CCCO1 (stereo not drawn) | inconclusive: 46.8 µM | –
16 | Cn1c(=O)cc(Oc2ccc(F)cc2F)c2cnc(NCC(C)(C)O)nc21 | – | inactive
17 | Cc1cc(F)ccc1-c1cc(N2CC[C@@H](O)[C@H]2CO)ncc1N(C)C(=O)C(C)(C)c1cc(C(F)(F)F)cc(C(F)(F)F)c1 | active: 27.3 µM | –
18 | Cc1ccc(C(C)C)c(O)c1 | active: 60.5 µM | –
19 | CCCCC(CC)COP(=O)(OCC(CC)CCCC)OCC(CC)CCCC (stereo not drawn) | inconclusive: 11.8 µM | –
20 | C1CCOC1 | inconclusive: 5.19 µM | –

Row | Compound | AC50 | outcome
21 | COc1cc(C(=O)NC2CCN(C)CC2)ccc1Nc1ncc2c(n1)N(C1CCCC1)CC(F)(F)C(=O)N2C | active: 42.9 µM | –
22 | CCCc1ccccc1 | inconclusive: 46.1 µM | –
23 | CNNCc1ccc(C(=O)NC(C)C)cc1 | inconclusive: 23 µM | –
24 | CN(C)C=O | inconclusive: 46.1 µM | –
25 | [O-][n+]1ccc(Cl)cc1 | inconclusive: 48 µM | –
26 | O=C(C=Cc1ccccc1)OCCCc1ccccc1 | – | inactive
27 | Cc1ccc([N+](=O)[O-])cc1N | inconclusive: 46.1 µM and inconclusive: 46 µM | –
28 | CCCOc1sc(C(=O)N2CCC(c3cc(CN)ccc3F)CC2)c(C)c1Br | active: 31.7 µM | –
29 | CC(=O)CC(=O)Nc1ccccc1C | inconclusive: 5.48 µM and inconclusive: 46.5 µM | –
30 | COc1cc(-c2nc(NC(=O)c3cc4cc(C)cc(C)c4n3CC(=O)O)sc2CCC2CCCCC2)c(OC)cc1Cl | active: 2.1 µM | –
31 | C[C@]12C=CC(=O)C=C1CC[C@@H]1[C@@H]2[C@@H](O)C[C@@]2(C)[C@H]1CC[C@]2(O)C(=O)CO | – | inactive
32 | CCCCOC(=O)CC(CC(=O)OCCCC)(OC(C)=O)C(=O)OCCCC | – | inactive
33 | COc1cc([C@@H]2c3cc4c(cc3[C@@H](O[C@@H]3O[C@@H]5CO[C@@H](C)O[C@H]5[C@H](O)[C@H]3O)[C@H]3COC(=O)[C@H]23)OCO4)cc(OC)c1O | inconclusive: 23 µM | –
34 | CCCCC(CC)COC(=O)CC(C(=O)OCC(CC)CCCC)S(=O)(=O)O (stereo not drawn) | active: 50.1 µM [middle of 4 runs] | –
35 | CCOCCOCCOCCO | inconclusive: 46.1 µM and inconclusive: 47.4 µM | –
36 | CC1=CC[C@@]23C[C@@H]1C(C)(C)[C@@H]2CC[C@H]3C | inconclusive: 46.1 µM | –
37 | CC1=C(/C=C/C(C)=C/C=C/C(C)=C/CO)C(C)(C)CCC1 | active: 78.5 µM and inconclusive: 46.6 µM and inconclusive: 23 µM | –
38 | CCC(C)=NO | inconclusive: 76.8 µM and inconclusive: 45.5 µM | –
39 | O=C(O)Cc1cc(I)c(Oc2ccc(O)c(I)c2)c(I)c1 | active: 19 µM and active: 5.82 µM | –

biological target: Cellular tumor antigen p53 (Homo sapiens) (UniProt P04637); test: TOX21_p53_BLA_p5_ratio: Tox21 HCT-116 p53 Agonism Beta-lactamase Assay, Ratio, Phase 5 (AID 2283599)
Outline: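 HCT-116 cells carrying a p53-inducible beta-lactamase reporter were seeded at 4000 cells/well and dosed after 5 h with compound in DMSO (217-fold dilution). After 16 h at 37C, CCF4-AM substrate was added for 2 h, and the 460/530 nm emission ratio was scored as gain-of-signal versus DMSO.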

Row | Compound | AC50 | outcome
40 | O=C(Nc1cccc([N+](=O)[O-])c1)c1cc2ccccc2cc1O | active: 4.65 µM | –
41 | CCCCCCc1ccc(O)cc1O | active: 78.1 µM and active: 68.4 µM | –
42 | COc1cccc2c1C(=O)c1c(O)c3c(c(O)c1C2=O)C[C@@](O)(C(=O)CO)C[C@@H]3O[C@H]1C[C@H](N)[C@H](O)[C@H](C)O1 | active: 238 nM and active: 422 nM | –
43 | CC(C)=CCl | inconclusive: 46.1 µM and inconclusive: 46.6 µM | –
44 | Clc1cc(Cl)c(Cl)cc1Cl | inconclusive: 46.7 µM | –
45 | O=C(Cl)c1cccc(C(=O)Cl)c1 | inconclusive: 80.5 µM | –
46 | CCN=C1C=CC(=C(c2ccc(N(CC)CC)cc2)c2ccc(N(CC)CC)cc2)c2ccccc21 | active: 57.2 µM | –
47 | C=CC(=O)OCCC(=O)O | inconclusive: 46.1 µM and inconclusive: 57.4 µM | –
48 | Clc1ccc(C(c2ccccc2Cl)C(Cl)Cl)cc1 (stereo not drawn) | active: 83.4 µM and active: 42.3 µM | –
49 | O=C(Nc1cccc(C(F)(F)F)c1)c1cc(Br)cc(Br)c1O | active: 1.07 µM and active: 7.71 µM | –
50 | CN[C@H]1CC[C@@H](c2ccc(Cl)c(Cl)c2)c2ccc(S(N)(=O)=O)cc21 | active: 82.5 µM | –
51 | CC(C)CCCCCCCOC(=O)CCCCC(=O)OCCCCCCCC(C)C | inconclusive: 46.1 µM and inconclusive: 57.6 µM | –
52 | C[Si]1(C)O[Si](C)(C)O[Si](C)(C)O[Si](C)(C)O1 | – | inactive
53 | CCCCCCC(=O)OCC | inconclusive: 46.1 µM | –
54 | OCC1CCCO1 (stereo not drawn) | inconclusive: 46.8 µM | –
55 | Cn1c(=O)cc(Oc2ccc(F)cc2F)c2cnc(NCC(C)(C)O)nc21 | inconclusive: 46.1 µM | –
56 | Cc1cc(F)ccc1-c1cc(N2CC[C@@H](O)[C@H]2CO)ncc1N(C)C(=O)C(C)(C)c1cc(C(F)(F)F)cc(C(F)(F)F)c1 | active: 36 µM | –
57 | Cc1ccc(C(C)C)c(O)c1 | active: 73.2 µM | –
58 | CCCCC(CC)COP(=O)(OCC(CC)CCCC)OCC(CC)CCCC (stereo not drawn) | inconclusive: 46.1 µM | –
59 | C1CCOC1 | inconclusive: 47.6 µM | –

Row | Compound | AC50 | outcome
60 | COc1cc(C(=O)NC2CCN(C)CC2)ccc1Nc1ncc2c(n1)N(C1CCCC1)CC(F)(F)C(=O)N2C | active: 0.00396 µM | –
61 | CCCc1ccccc1 | inconclusive: 46.1 µM | –
62 | CNNCc1ccc(C(=O)NC(C)C)cc1 | inconclusive: 46.1 µM and inconclusive: 78.8 µM | –
63 | CN(C)C=O | inconclusive: 46.9 µM | –
64 | [O-][n+]1ccc(Cl)cc1 | inconclusive: 48 µM | –
65 | O=C(C=Cc1ccccc1)OCCCc1ccccc1 | – | inactive
66 | Cc1ccc([N+](=O)[O-])cc1N | inconclusive: 46 µM | –
67 | CCCOc1sc(C(=O)N2CCC(c3cc(CN)ccc3F)CC2)c(C)c1Br | active: 80.7 µM | –
68 | CC(=O)CC(=O)Nc1ccccc1C | inconclusive: 46.1 µM | –
69 | COc1cc(-c2nc(NC(=O)c3cc4cc(C)cc(C)c4n3CC(=O)O)sc2CCC2CCCCC2)c(OC)cc1Cl | active: 9.04 µM | –
70 | C[C@]12C=CC(=O)C=C1CC[C@@H]1[C@@H]2[C@@H](O)C[C@@]2(C)[C@H]1CC[C@]2(O)C(=O)CO | inconclusive: 45.6 µM and inconclusive: 23 µM | –
71 | CCCCOC(=O)CC(CC(=O)OCCCC)(OC(C)=O)C(=O)OCCCC | inconclusive: 46.1 µM and inconclusive: 46.5 µM and inconclusive: 23 µM | –
72 | COc1cc([C@@H]2c3cc4c(cc3[C@@H](O[C@@H]3O[C@@H]5CO[C@@H](C)O[C@H]5[C@H](O)[C@H]3O)[C@H]3COC(=O)[C@H]23)OCO4)cc(OC)c1O | active: 2.56 µM and active: 4.83 µM | –
73 | CCCCC(CC)COC(=O)CC(C(=O)OCC(CC)CCCC)S(=O)(=O)O (stereo not drawn) | active: 79.2 µM [middle of 4 runs] | –
74 | CCOCCOCCOCCO | inconclusive: 47.4 µM | –
75 | CC1=CC[C@@]23C[C@@H]1C(C)(C)[C@@H]2CC[C@H]3C | inconclusive: 46.1 µM | –
76 | CC1=C(/C=C/C(C)=C/C=C/C(C)=C/CO)C(C)(C)CCC1 | active: 86.4 µM and inconclusive: 23 µM | –
77 | CCC(C)=NO | inconclusive: 78.1 µM | –
78 | O=C(O)Cc1cc(I)c(Oc2ccc(O)c(I)c2)c(I)c1 | active: 1.95 µM and active: 16.7 µM | –

— PubChem BioAssay (EPA / NIEHS)
